Reference: article PMC9043132
Results are given in words; binding and its absence hold for the method and conditions named. Binding seen in cells or lysates may run through a third protein.

Sequences of proteins named here, by UniProt entry; tags and fusion partners are left off.
UniProt P48643: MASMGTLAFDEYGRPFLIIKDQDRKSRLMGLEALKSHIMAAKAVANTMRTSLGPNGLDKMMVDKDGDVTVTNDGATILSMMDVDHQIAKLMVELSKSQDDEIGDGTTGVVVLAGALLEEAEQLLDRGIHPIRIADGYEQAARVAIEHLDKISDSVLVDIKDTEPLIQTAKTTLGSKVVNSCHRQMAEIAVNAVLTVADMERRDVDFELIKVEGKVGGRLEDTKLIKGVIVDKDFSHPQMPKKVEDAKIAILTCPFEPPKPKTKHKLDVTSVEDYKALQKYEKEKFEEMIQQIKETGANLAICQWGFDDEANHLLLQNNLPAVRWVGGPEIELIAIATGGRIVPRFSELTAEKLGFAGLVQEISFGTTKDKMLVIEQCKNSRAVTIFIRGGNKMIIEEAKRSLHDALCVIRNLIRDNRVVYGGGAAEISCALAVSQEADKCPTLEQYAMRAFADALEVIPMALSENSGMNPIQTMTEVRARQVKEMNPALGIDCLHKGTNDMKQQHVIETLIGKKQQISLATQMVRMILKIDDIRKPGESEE

Biological target: chaperonin-containing TCP1 subunit 5 (human (endogenous in HsRPE cells)) (UniProt P48643)
Assay: co-IP; HsRPE cell lysate incubated with 5 ug anti-CCT5 (or rabbit IgG control) at 4°C overnight, Protein A/G magnetic beads, Western blot of the precipitate

B1: Mer receptor tyrosine kinase (receptor, UniProt Q12866 21-999)
chain: AITEAREEAKPYPLFPGPFPGSLQTDHTPLLSLPHASGYQPALMFSPTQPGRPHTGNVAIPQVTSVESKPLPPLAFKHTVGHIILSEHKGVKFNCSISVPNIYQDTTISWWKDGKELLGAHHAITQFYPDDEVTAIIASFSITSVQRSDNGSYICKMKINNEEIVSDPIYIEVQGLPHFTKQPESMNVTRNTAFNLTCQAVGPPEPVNIFWVQNSSRVNEQPEKSPSVLTVPGLTEMAVFSCEAHNDKGLTVSKGVQINIKAIPSPPTEVSIRNSTAHSILISWVPGFDGYSPFRNCSIQVKEADPLSNGSVMIFNTSALPHLYQIKQLQALANYSIGVSCMNEIGWSAVSPWILASTTEGAPSVAPLNVTVFLNESSDNVDIRWMKPPTKQQDGELVGYRISHVWQSAGISKELLEEVGQNGSRARISVQVHNATCTVRIAAVTRGGVGPFSDPVKIFIPAHGWVDYAPSSTPAPGNADPVLIIFGCFCGFILIGLILYISLAIRKRVQETKFGNAFTEEDSELVVNYIAKKSFCRRAIELTLHSLGVSEELQNKLEDVVIDRNLLILGKILGEGEFGSVMEGNLKQEDGTSLKVAVKTMKLDNSSQREIEEFLSEAACMKDFSHPNVIRLLGVCIEMSSQGIPKPMVILPFMKYGDLHTYLLYSRLETGPKHIPLQTLLKFMVDIALGMEYLSNRNFLHRDLAARNCMLRDDMTVCVADFGLSKKIYSGDYYRQGRIAKMPVKWIAIESLADRVYTSKSDVWAFGVTMWEIATRGMTPYPGVQNHEMYDYLLHGHRLKQPEDCLDELYEIMYSCWRTDPLDRPTFSVLRLQLEKLLESLPDVRNQADVIYVNTQLLESSEGLAQGSTLAPLDLNIDPDSIIASCTPRAAISVVTAEVHDSKPHEGRYILNGGSEEWEDLTSAPSAAVTAEKNSVLPGERLVRNGVSWSHSSMLPLGSSLPDELLFADDSSEGSEVLM
- binding: no binding
